Results are given in words; binding and its absence hold for the method and conditions named. In cells and extracts the contact can be indirect. Binding calls can cover weak binding; strength is not graded here.
Target: Flag-TRIM22-ΔRING (RING-finger domain deletion mutant of TRIM22) (UniProt Q8IYM9)
Experiment: co-IP; HEK293 cells transfected with Flag-TRIM22 and HA-IκBα constructs; IP lysis buffer with protease inhibitors; 200 µg lysate with anti-FLAG or anti-HA antibody overnight at 4 °C, Protein A/G magnetic beads 2 h at room temperature; western blot

Protein sequences, listed by entry. Tags and fused reporters are not part of them. Lines headed by an entry give the natural chain unless they say otherwise; changes in a name come on top.
UniProt Q8IYM9: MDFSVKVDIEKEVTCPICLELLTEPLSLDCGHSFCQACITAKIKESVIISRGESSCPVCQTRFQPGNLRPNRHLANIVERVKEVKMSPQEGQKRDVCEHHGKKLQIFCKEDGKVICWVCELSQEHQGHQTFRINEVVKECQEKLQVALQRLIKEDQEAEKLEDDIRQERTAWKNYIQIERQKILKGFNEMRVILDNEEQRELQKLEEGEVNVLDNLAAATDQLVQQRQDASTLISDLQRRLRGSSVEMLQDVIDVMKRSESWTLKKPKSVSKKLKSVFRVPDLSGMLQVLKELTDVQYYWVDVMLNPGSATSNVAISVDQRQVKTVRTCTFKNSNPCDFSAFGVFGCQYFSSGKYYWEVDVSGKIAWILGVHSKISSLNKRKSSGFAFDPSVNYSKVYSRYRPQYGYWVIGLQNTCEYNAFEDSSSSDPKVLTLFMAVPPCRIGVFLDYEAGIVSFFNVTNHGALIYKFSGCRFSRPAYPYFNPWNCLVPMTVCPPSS
UniProt P25963: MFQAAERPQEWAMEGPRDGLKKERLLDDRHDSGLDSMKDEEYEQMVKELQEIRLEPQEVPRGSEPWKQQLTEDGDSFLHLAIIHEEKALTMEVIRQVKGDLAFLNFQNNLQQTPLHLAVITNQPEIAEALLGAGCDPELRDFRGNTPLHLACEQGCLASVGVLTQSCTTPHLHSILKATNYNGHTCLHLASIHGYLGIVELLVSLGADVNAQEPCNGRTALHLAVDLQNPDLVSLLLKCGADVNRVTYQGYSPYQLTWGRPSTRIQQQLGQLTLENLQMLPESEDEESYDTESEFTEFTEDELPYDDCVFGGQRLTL

- binding: binds
Substance: HA-tagged IκBα (NF-κB inhibitor alpha) (from UniProt P25963 1-317)

— PMC7853150
